No constants are given. Whether binding was seen depends on the method and setting. Binding seen in cells or lysates may run through a third protein. Some binding calls cover weakened binding; strength is not graded here.
Key:
[1] = target: T1, MRTF-A (myocardin-related transcription factor A), endogenous (mouse (endogenous in C2C12)) (UniProt Q8K4J6); assay: proximity ligation; Duolink in situ PLA on C2-WT and C2-H222P cells on glass coverslips; anti-MRTF-A and anti-phospho(T25)-cofilin-1 primary antibodies overnight at 4 °C
T1 sequence: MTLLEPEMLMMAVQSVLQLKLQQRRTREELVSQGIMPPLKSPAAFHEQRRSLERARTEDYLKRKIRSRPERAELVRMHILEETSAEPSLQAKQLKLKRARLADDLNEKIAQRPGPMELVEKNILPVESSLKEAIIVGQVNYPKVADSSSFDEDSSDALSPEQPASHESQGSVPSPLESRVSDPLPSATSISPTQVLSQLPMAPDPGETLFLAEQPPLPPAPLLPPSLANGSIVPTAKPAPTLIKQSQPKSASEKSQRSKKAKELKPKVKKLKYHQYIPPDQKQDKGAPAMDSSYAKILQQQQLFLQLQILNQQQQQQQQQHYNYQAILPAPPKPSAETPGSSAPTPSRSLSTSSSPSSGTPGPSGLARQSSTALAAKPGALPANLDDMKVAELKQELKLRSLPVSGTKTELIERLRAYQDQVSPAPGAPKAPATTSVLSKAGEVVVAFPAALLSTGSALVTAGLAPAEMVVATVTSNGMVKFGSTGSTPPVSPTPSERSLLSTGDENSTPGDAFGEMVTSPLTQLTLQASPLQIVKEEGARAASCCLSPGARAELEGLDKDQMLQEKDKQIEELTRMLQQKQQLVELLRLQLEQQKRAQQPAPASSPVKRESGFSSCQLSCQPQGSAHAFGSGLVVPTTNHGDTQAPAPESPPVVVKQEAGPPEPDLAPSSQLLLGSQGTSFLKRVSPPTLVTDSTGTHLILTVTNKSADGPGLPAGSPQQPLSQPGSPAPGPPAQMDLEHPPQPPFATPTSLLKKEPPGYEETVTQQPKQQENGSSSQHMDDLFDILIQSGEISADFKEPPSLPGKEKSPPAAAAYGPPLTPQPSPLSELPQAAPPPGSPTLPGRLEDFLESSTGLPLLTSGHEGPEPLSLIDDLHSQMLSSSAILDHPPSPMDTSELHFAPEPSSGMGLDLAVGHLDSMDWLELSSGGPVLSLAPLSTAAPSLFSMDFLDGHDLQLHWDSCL

By UniProt entry, the sequences of proteins in these tests, tags left out.
UniProt P18760: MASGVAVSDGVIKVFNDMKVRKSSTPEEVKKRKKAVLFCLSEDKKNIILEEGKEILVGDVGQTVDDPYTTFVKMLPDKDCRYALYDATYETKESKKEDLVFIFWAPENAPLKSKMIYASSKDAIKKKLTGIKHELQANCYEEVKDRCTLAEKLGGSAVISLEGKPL

[2] = target: T1, MRTF-A (myocardin-related transcription factor A), endogenous (mouse (endogenous in C2C12)); assay: co-IP; extracts of C2-WT and C2-H222P cells (not transfected); immunoprecipitated with MRTF-A antibody, protein G-Sepharose; lysis buffer 50 mM Tris-HCl pH 7.5, 0.15 M NaCl, 1 mM EDTA, 1% NP-40; 4 °C; immunoblot

- binding [1]: binds
- binding [2]: binds
Substance: phospho(T25)-cofilin-1 (cofilin-1 phosphorylated on threonine 25) (from UniProt P18760 1-166)
